Laboratory results as given in patent publication US10563263B2, “Genetic polymorphisms associated with statin response and cardiovascular diseases, methods of detection and uses thereof” (CELERA CORPORATION, priority 2010, dated 2020).
This continues a long series; more values of the same kind are listed elsewhere.

Test system: CVD (CHD or stroke)
Assay: CARE: SNP by pravastatin treatment interaction, logistic regression (synergy index), CVD endpoint
Type: in vivo, human
Text: CARE was a secondary prevention trial and WOSCOPS was a primary prevention trial.
The CHD endpoint was defined in the analyses herein of CARE as a composite endpoint of fatal CHD, definite non-fatal MI, or revascularization, and was defined in the analyses herein of WOSCOPS as a composite endpoint of death from CHD, nonfatal MI, or revascularization. In both the CARE and WOSCOPS analyses herein, the CVD endpoint was defined as a composite endpoint of CHD or stroke. […] Revascularization, which can include percutaneous transluminal coronary angioplasty (PTCA), stent placement, and coronary artery bypass graft (CABG), are medical interventions that indicate the presence of CHD.
Cohort and case-only study designs were used to identify SNPs associated with response to statin treatment.
For each SNP, a logistic regression model having treatment status as the dependent variable and SNP as the independent predictor variable was performed, with terms for age, sex and race included in the model as covariates. The anti-log of the regression coefficient corresponding to the SNP is an estimate of the synergy index (SI) (Davis et al., “Imputing gene-treatment interactions when the genotype distribution is unknown using case-only and putative placebo analyses-a new method for the Genetics of Hypertension Associated Treatment (GenHAT) study”, Statistics in Medicine 23: (2004), pages 2413-2427). The SI is a ratio of odds ratios: for example in the CARE and WOSCOPS studies, the SI represents the factor by which the odds-ratio of statin treatment, compared with placebo, among major homozygous individuals is multiplied by in order to obtain the odds-ratio of treatment vs. placebo among heterozygous individuals; and multiplied by a second time to obtain the odds-ratio of treatment vs. placebo in minor homozygous individuals. […] In a randomized clinical trial, genotype and treatment are independent by design.

CC[C@H](C)C(=O)O[C@H]1C[C@H](O)C=C2C=C[C@H](C)[C@H](CC[C@@H](O)C[C@@H](O)CC(=O)O)[C@H]21 [Pravastatin, pravastatin]
OR (rs4714484 allele A1=A, model ADD, Imputed, pravastatin vs placebo): 0.6694
OR (rs4736802 allele A1=G, model DOM, Imputed, pravastatin vs placebo): 1.64
OR (rs4760785 allele A1=A, model ADD, Imputed, pravastatin vs placebo): 0.7218
OR (rs4760785 allele A1=A, model DOM, Imputed, pravastatin vs placebo): 0.6464
OR (rs4760894 allele A1=T, model ADD, Imputed, pravastatin vs placebo): 0.7218
OR (rs4760894 allele A1=T, model DOM, Imputed, pravastatin vs placebo): 0.6464
OR (rs4760895 allele A1=A, model ADD, Imputed, pravastatin vs placebo): 0.7218
OR (rs4760895 allele A1=A, model DOM, Imputed, pravastatin vs placebo): 0.6464
OR (rs4764738 allele A1=A, model ADD, Imputed, pravastatin vs placebo): 1.331
OR (rs4764974 allele A1=T, model ADD, Imputed, pravastatin vs placebo): 1.322
OR (rs4798366 allele A1=G, model REC, Imputed, pravastatin vs placebo): 1.597
OR (rs4836502 allele A1=T, model DOM, Imputed, pravastatin vs placebo): 0.6617
OR (rs4836507 allele A1=C, model DOM, Imputed, pravastatin vs placebo): 0.6716
OR (rs4836744 allele A1=A, model ADD, Imputed, pravastatin vs placebo): 0.7163
OR (rs4836744 allele A1=A, model DOM, Imputed, pravastatin vs placebo): 0.6971
OR (rs4848944 allele A1=C, model REC, Genotyped, pravastatin vs placebo): 0.6741
OR (rs4851529 allele A1=A, model DOM, Imputed, pravastatin vs placebo): 0.6968
OR (rs4851531 allele A1=T, model DOM, Imputed, pravastatin vs placebo): 0.7275
OR (rs4878214 allele A1=A, model ADD, Imputed, pravastatin vs placebo): 0.5979
OR (rs4880803 allele A1=A, model ADD, Imputed, pravastatin vs placebo): 0.7753
OR (rs4896568 allele A1=T, model DOM, Imputed, pravastatin vs placebo): 0.6713
OR (rs4938851 allele A1=T, model DOM, Imputed, pravastatin vs placebo): 1.543
OR (rs4964416 allele A1=C, model DOM, Imputed, pravastatin vs placebo): 0.598
OR (rs5756669 allele A1=C, model DOM, Imputed, pravastatin vs placebo): 1.724
OR (rs6033138 allele A1=C, model ADD, Imputed, pravastatin vs placebo): 1.371
OR (rs6033138 allele A1=C, model REC, Imputed, pravastatin vs placebo): 1.836
OR (rs6040619 allele A1=C, model ADD, Imputed, pravastatin vs placebo): 1.337
OR (rs6040619 allele A1=C, model REC, Imputed, pravastatin vs placebo): 1.844
OR (rs6040625 allele A1=T, model ADD, Imputed, pravastatin vs placebo): 1.343
OR (rs6040625 allele A1=T, model REC, Imputed, pravastatin vs placebo): 1.844
OR (rs6040630 allele A1=A, model ADD, Imputed, pravastatin vs placebo): 1.353
OR (rs6040630 allele A1=A, model REC, Imputed, pravastatin vs placebo): 1.892
OR (rs6040633 allele A1=A, model ADD, Imputed, pravastatin vs placebo): 1.35
OR (rs6040633 allele A1=A, model REC, Imputed, pravastatin vs placebo): 1.888
OR (rs6040634 allele A1=T, model ADD, Imputed, pravastatin vs placebo): 1.353
OR (rs10922903 allele C, REC model, Imputed): 0.4885
OR (rs10941126 allele G, ADD model, Imputed): 0.2198
OR (rs10941126 allele G, DOM model, Imputed): 0.2258
OR (rs10947980 allele G, ADD model, Imputed): 0.7397
OR (rs11059376 allele T, ADD model, Imputed): 1.559
OR (rs11072995 allele T, REC model, Imputed): 3.578
OR (rs11081202 allele G, REC model, Genotyped): 1.887
OR (rs11124962 allele A, DOM model, Imputed): 1.469
OR (rs11178531 allele A, ADD model, Imputed): 0.7599
OR (rs11178531 allele A, DOM model, Imputed): 0.6258
OR (rs11178583 allele A, ADD model, Imputed): 0.7274
OR (rs11178583 allele A, DOM model, Imputed): 0.6032
OR (rs11178589 allele T, ADD model, Imputed): 0.7243
OR (rs11178589 allele T, DOM model, Imputed): 0.5988
OR (rs11178594 allele C, ADD model, Imputed): 0.7305
OR (rs11178594 allele C, DOM model, Imputed): 0.5995
OR (rs11178602 allele T, ADD model, Imputed): 0.7265
OR (rs11178602 allele T, DOM model, Imputed): 0.592
OR (rs11178648 allele T, ADD model, Imputed): 0.7481
OR (rs11178648 allele T, DOM model, Imputed): 0.5905
OR (rs11198877 allele T, DOM model, Imputed): 1.634
OR (rs11198942 allele T, DOM model, Imputed): 1.654
OR (rs11221075 allele A, ADD model, Imputed): 0.6446
OR (rs11242020 allele T, DOM model, Imputed): 0.6462
OR (rs11242021 allele T, DOM model, Imputed): 0.6617
OR (rs11242022 allele T, DOM model, Imputed): 0.6617
OR (rs11242023 allele T, DOM model, Imputed): 0.6676
OR (rs11576627 allele T, ADD model, Imputed): 1.72
OR (rs11576627 allele T, DOM model, Imputed): 1.805
OR (rs11630050 allele G, REC model, Imputed): 3.097
OR (rs11633024 allele C, REC model, Imputed): 3.097
OR (rs11636298 allele G, REC model, Imputed): 3.433
OR (rs11637363 allele C, REC model, Imputed): 3.309
OR (rs11637813 allele A, REC model, Imputed): 3.097
OR (rs11638043 allele C, REC model, Imputed): 2.984
OR (rs11638115 allele A, REC model, Imputed): 3.578
OR (rs11717157 allele T, ADD model, Imputed): 1.366
OR (rs11724055 allele A, DOM model, Imputed): 0.6341
OR (rs11743355 allele C, ADD model, Imputed): 0.2056
OR (rs11743355 allele C, DOM model, Imputed): 0.2102
OR (rs11746806 allele T, ADD model, Imputed): 0.2198
OR (rs11746806 allele t, DOM model, Imputed): 0.2258
OR (rs11746959 allele T, ADD model, Imputed): 0.2198
OR (rs11746959 allele T, DOM model, Imputed): 0.2258
OR (rs11749272 allele T, DOM model, Imputed): 0.6489
OR (rs11853619 allele C, REC model, Imputed): 3.396
OR (rs11856780 allele A, REC model, Imputed): 3.396
OR (rs11901899 allele A, DOM model, Imputed): 1.388
OR (rs11903290 allele C, REC model, Imputed): 1.68
OR (rs11909480 allele G, ADD model, Imputed): 0.3557
OR (rs11909480 allele G, DOM model, Imputed): 0.3552
OR (rs11910289 allele T, ADD model, Imputed): 1.705
OR (rs11910289 allele T, DOM model, Imputed): 1.77
OR (rs11926319 allele G, DOM model, Imputed): 0.5553
OR (rs11933744 allele T, REC model, Imputed): 2.427
OR (rs11934919 allele C, REC model, Imputed): 2.427
OR (rs11934957 allele C, REC model, Imputed): 2.427
OR (rs11959206 allele A, REC model, Imputed): 0.528
OR (rs17076972 allele C, REC model, Imputed): 1.816
OR (rs17189710 allele T, ADD model, Imputed): 1.338
OR (rs17196143 allele A, ADD model, Imputed): 1.57
OR (rs17353809 allele G, ADD model, Imputed): 1.511
OR (rs17446418 allele G, DOM model, Imputed): 0.537
OR (rs17530747 allele T, DOM model, Imputed): 0.525
OR (rs17604285 allele C, ADD model, Imputed): 0.533
OR (rs17604285 allele C, DOM model, Imputed): 0.504
OR (rs17662322 allele T, DOM model, Imputed): 0.555
OR (rs17769826 allele T, ADD model, Imputed): 1.504
OR (rs17821641 allele T, ADD model, Imputed): 1.5
